Measurements reported in PubChem BioAssay AID1508597 (Cure First, 2020).

Aim: 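Genes whose silencing sensitises or protects ovarian cancer cells against rucaparib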 (primary screen)
Cells: human ovarian carcinoma lines grown from tumours: OCI-P5x (papillary serous) and OCI-C5x (clear cell)
Reagent: siRNA pool against human genes, 1.25 pmol siRNA per well
Timing: 72 h or 96 h, depending on the cell culture
Treatment: rucaparib 20 µM (about IC30) or vehicle, present until read-out
Rucaparib or vehicle: Vehicle
Cell line: OCI-P5x (serous)
Measured: 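Luminescent ATP-based viability assay read 72 or 96 h after transfection, depending on culture, given as normalised percent viability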
Scale: viability, normalised: higher = more viable cells remaining
Rule for the call: 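a well counts as a hit if its normalised viability is under 80 percent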
Calls: active = viability under 80%; inactive = viability 80% or more
Shown is an unselected part of the about 2,100 reagents, in one setting of the screen. 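Calls flag viability under 80% in either arm, not effects specific to rucaparib; the reference for percent is not stated.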 A reagent listed more than once was tested more than once; the source does not tell the runs apart. Not stated in the record: the 100% reference.

gene	PubChem SID	technical replicate	viability, normalised (%)	outcome
CHD7	SID405528106	1	63.5	active
CHD7	SID405528106	2	77.3	active
CHD7	SID405528106	3	67.5	active
KDM8	SID405526917	1	83.8	inactive
KDM8	SID405526917	2	93.3	inactive
KDM8	SID405526917	3	93.7	inactive
FOS	SID405526791	1	73.9	active
FOS	SID405526791	2	63.7	active
FOS	SID405526791	3	65.6	active
DNMT1	SID405528234	1	69.7	active
DNMT1	SID405528234	2	73	active
DNMT1	SID405528234	3	78.4	active
CLDN10	SID405528124	1	72.2	active
CLDN10	SID405528124	2	73.3	active
CLDN10	SID405528124	3	74	active
CSNK1D	SID405527443	1	105	inactive
CSNK1D	SID405527443	1	58.3	active
CSNK1D	SID405527443	2	91.6	inactive
CSNK1D	SID405527443	2	52.8	active
CSNK1D	SID405527443	3	103	inactive
CSNK1D	SID405527443	3	58.6	active
CDC42BPB	SID405527418	1	87.6	inactive
CDC42BPB	SID405527418	2	72.7	active
CDC42BPB	SID405527418	3	58.3	active
STKLD1	SID405527795	1	112	inactive
STKLD1	SID405527795	2	89.8	inactive
STKLD1	SID405527795	3	88.5	inactive
ING4	SID405526899	1	69.4	active
ING4	SID405526899	2	89	inactive
ING4	SID405526899	3	55.2	active
CHD9	SID405528108	1	79.7	active
CHD9	SID405528108	2	91.4	inactive
CHD9	SID405528108	3	82	inactive
PGGT1B	SID405527137	1	53.1	active
PGGT1B	SID405527137	2	54.9	active
PGGT1B	SID405527137	3	57.3	active
ADCK2	SID405527832	1	86.6	inactive
ADCK2	SID405527832	2	77.5	active
ADCK2	SID405527832	3	67.9	active
CILK1	SID405528522	1	67.7	active
CILK1	SID405528522	2	69.8	active
CILK1	SID405528522	3	62.3	active
UHRF2	SID405526607	1	73.8	active
UHRF2	SID405526607	2	96.7	inactive
UHRF2	SID405526607	3	75.5	active
RRM1	SID405528428	1	49.2	active
RRM1	SID405528428	2	48.3	active
RRM1	SID405528428	3	41.4	active
ASXL2	SID405527994	1	89.5	inactive
ASXL2	SID405527994	2	95.4	inactive
ASXL2	SID405527994	3	101	inactive
PHF10	SID405527139	1	57.6	active
PHF10	SID405527139	2	67.1	active
PHF10	SID405527139	3	114	inactive
RPA3	SID405528324	1	70.1	active
RPA3	SID405528324	2	60.5	active
RPA3	SID405528324	3	51.4	active
